The source of these data is the supplement of paper PMC12819154, “High-throughput peptide-centric local stability assay extends protein–ligand identification to membrane proteins, tissues and bacteria” (Nature Structural & Molecular Biology, 2025).

By UniProt entry, the sequences of proteins in these tests, tags left out. Where a name states a change or a piece, a line headed by the entry shows the natural chain unless it says otherwise.
UniProt Q8IZC7: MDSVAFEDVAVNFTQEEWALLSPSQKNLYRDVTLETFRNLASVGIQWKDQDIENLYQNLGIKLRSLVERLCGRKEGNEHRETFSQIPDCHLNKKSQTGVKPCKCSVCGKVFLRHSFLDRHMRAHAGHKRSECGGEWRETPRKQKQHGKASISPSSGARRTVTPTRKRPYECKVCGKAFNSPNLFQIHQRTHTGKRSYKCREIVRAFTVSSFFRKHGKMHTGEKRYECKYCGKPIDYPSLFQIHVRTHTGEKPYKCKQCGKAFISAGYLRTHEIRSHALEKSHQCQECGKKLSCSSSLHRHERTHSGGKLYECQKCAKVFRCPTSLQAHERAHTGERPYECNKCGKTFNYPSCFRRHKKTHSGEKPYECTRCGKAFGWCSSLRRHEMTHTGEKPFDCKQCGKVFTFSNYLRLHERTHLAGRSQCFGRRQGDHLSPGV
UniProt Q8N3R9: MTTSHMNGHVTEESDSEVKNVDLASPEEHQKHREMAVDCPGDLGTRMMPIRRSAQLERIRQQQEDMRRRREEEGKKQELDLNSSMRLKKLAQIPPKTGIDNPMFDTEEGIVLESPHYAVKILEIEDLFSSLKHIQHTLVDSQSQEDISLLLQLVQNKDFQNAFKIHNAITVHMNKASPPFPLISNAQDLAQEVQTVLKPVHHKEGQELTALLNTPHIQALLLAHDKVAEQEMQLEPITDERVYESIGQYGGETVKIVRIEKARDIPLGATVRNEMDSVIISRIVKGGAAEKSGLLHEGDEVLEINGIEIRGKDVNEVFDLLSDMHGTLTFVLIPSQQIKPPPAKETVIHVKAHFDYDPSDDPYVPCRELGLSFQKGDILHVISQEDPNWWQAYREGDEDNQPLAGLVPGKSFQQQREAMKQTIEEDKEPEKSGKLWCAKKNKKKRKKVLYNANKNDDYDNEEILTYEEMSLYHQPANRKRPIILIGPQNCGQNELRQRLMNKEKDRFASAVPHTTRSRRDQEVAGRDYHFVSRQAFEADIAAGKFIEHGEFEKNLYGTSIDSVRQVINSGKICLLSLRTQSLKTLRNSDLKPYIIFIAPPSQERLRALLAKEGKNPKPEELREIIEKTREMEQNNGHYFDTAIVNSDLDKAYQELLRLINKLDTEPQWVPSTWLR
UniProt Q8N344: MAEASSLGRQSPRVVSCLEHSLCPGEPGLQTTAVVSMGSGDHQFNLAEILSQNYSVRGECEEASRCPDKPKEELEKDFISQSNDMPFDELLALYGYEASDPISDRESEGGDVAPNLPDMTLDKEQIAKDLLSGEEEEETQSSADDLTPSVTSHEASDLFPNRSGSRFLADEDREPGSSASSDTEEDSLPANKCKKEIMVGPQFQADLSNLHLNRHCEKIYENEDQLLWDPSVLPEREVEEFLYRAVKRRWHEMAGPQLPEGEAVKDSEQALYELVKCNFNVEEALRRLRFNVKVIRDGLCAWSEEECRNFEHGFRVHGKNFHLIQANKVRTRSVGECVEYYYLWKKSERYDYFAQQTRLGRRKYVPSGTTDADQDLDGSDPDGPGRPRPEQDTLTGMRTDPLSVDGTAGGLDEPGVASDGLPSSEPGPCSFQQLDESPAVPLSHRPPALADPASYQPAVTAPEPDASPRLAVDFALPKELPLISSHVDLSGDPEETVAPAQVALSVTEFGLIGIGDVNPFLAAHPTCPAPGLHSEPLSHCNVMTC
UniProt Q8IWC1: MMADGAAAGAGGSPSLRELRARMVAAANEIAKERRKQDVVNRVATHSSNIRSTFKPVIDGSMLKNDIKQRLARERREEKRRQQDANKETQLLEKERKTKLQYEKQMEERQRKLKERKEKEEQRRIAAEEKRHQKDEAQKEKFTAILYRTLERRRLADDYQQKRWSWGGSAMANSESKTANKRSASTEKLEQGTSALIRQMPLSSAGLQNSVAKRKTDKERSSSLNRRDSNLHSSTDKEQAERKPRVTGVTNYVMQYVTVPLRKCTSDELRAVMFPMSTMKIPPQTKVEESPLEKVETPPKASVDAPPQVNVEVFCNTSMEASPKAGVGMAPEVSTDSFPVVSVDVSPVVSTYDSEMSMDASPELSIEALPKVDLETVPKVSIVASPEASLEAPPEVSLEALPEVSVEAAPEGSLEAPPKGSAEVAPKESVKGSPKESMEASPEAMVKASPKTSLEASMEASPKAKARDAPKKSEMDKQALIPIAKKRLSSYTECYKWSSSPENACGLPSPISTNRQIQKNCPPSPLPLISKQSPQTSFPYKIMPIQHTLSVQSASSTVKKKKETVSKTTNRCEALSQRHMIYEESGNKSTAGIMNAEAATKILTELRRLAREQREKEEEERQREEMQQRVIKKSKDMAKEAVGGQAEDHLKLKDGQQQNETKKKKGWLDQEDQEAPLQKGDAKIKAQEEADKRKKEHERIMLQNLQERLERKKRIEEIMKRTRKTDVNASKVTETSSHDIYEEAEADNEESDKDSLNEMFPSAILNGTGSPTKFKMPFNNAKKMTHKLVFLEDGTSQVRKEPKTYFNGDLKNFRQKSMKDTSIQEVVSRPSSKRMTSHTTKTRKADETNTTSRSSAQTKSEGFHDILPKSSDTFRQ
UniProt Q8IVC4: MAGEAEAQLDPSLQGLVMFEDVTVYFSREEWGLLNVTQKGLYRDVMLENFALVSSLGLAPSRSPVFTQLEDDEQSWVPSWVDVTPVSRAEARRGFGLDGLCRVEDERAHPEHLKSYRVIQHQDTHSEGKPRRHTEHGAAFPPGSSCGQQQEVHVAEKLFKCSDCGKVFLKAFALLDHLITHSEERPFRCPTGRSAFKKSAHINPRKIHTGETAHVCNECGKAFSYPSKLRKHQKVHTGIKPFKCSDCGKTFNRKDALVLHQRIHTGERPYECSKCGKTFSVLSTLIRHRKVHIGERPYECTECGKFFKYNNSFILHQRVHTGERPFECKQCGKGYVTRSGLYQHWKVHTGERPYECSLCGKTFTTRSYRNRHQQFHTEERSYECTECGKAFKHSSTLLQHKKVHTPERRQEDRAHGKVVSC
UniProt Q8IXM2, whole entry, looked up: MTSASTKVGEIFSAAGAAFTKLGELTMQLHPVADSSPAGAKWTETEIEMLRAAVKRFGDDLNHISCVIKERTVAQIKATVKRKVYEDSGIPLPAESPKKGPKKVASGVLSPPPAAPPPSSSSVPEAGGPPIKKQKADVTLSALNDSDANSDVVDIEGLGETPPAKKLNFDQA
UniProt Q86XI2: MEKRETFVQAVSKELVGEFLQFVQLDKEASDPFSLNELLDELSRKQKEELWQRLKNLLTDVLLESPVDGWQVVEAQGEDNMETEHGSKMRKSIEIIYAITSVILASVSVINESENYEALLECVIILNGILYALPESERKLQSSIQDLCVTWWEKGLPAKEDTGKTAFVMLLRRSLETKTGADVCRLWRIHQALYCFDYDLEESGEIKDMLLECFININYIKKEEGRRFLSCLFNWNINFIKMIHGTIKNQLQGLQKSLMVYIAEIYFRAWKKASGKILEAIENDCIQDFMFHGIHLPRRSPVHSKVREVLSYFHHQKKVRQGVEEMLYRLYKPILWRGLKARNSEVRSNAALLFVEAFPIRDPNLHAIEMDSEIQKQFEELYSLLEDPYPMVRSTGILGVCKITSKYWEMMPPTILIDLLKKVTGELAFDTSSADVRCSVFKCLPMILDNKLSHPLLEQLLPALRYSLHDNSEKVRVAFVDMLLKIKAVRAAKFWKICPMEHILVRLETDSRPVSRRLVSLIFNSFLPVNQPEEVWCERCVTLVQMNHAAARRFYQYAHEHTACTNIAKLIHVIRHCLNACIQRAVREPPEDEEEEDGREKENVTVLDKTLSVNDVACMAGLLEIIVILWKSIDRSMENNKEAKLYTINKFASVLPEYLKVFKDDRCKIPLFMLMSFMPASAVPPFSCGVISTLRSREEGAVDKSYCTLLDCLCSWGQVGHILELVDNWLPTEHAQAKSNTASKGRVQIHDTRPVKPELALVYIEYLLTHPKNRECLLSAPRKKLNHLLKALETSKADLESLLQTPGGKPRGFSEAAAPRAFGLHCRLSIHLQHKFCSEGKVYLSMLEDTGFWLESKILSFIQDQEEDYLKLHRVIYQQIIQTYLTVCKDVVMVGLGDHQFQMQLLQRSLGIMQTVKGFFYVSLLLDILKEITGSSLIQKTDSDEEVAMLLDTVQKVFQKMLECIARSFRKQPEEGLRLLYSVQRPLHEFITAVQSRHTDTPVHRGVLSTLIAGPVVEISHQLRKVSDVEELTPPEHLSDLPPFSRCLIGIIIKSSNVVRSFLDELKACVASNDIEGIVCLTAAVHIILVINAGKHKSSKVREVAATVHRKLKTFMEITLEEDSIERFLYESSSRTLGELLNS
UniProt Q8IUH3: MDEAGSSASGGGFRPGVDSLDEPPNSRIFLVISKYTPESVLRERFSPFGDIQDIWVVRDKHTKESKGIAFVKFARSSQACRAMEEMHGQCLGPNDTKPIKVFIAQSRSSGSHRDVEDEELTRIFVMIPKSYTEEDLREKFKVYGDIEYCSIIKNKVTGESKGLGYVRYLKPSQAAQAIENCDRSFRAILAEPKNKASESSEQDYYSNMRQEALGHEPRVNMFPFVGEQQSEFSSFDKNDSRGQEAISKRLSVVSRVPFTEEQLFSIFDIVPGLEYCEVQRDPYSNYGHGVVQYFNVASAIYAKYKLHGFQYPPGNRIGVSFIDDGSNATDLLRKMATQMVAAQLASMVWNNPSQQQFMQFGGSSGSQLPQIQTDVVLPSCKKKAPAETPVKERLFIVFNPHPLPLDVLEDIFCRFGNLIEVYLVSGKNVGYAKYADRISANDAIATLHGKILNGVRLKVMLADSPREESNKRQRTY
UniProt Q8IW45: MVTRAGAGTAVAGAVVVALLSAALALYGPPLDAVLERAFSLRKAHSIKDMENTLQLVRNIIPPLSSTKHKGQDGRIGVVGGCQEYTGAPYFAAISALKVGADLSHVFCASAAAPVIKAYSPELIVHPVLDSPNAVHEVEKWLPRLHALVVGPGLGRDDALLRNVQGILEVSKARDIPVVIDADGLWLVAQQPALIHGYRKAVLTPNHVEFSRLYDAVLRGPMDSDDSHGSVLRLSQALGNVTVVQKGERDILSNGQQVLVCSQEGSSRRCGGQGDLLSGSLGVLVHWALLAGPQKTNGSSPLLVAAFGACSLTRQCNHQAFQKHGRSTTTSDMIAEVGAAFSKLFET
UniProt Q8IUD2: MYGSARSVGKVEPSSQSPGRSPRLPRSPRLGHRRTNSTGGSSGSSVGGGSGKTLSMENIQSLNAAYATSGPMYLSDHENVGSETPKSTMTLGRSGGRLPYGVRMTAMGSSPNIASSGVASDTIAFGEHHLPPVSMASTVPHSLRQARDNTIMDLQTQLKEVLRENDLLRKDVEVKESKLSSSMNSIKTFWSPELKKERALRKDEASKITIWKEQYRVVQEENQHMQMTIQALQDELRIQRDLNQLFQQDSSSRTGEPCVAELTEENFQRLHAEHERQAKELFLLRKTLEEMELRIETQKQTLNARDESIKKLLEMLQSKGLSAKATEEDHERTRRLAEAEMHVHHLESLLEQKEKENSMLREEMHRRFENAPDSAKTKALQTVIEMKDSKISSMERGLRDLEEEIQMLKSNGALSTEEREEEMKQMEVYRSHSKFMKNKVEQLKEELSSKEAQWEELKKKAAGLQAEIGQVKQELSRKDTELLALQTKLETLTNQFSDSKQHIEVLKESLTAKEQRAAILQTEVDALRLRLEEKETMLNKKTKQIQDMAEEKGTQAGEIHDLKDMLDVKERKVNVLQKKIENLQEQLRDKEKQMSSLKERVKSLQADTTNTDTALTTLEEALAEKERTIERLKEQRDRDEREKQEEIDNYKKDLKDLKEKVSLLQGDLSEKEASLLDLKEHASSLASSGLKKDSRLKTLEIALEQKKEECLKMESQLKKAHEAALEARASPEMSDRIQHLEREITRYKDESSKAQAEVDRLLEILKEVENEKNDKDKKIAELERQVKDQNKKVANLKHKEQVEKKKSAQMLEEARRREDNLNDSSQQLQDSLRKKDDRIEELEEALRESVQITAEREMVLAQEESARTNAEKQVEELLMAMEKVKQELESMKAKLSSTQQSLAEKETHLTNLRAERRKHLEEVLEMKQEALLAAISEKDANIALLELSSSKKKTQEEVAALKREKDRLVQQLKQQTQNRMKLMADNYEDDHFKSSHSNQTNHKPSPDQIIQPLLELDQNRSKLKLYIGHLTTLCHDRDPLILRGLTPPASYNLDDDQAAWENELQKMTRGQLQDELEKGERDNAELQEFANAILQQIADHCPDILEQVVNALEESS
UniProt Q8N300: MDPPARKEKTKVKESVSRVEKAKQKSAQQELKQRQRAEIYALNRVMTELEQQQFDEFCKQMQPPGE
UniProt Q8N128: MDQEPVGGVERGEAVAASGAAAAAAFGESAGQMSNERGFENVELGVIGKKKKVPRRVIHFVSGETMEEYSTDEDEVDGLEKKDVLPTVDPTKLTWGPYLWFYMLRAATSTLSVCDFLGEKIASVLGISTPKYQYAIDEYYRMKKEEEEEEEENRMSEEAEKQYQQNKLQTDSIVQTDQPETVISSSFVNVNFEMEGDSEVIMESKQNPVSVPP

The list shows a part of the results. Most values lie at the level of the controls, where differences are scatter.

Compound in the assay: CN[C@@H]1C[C@H]2O[C@@](C)([C@@H]1OC)n1c3ccccc3c3c4c(c5c6ccccc6n2c5c31)C(=O)NC4 [staurosporine]
As to the kind of experiment: log2 fold change of tryptic peptide abundance, ligand vs vehicle (limited proteolysis) (log2 ratio); higher = more trypsin-susceptible (destabilized). The note with it: ligand concentration: 20 uM; sample: K562 cleared lysate; digestion: 4 min, 22 C (HT-PELSA RT4min, Orbitrap Astral).
Take “ZNF101 (peptide sequence: RQGDHLSPGV, peptide start residue: 427) (UniProt Q8IZC7)”: the log2 fold change was determined as 0.306.
Consider “MPP5 (peptide sequence: QAFEADIAAGK, peptide start residue: 534) (UniProt Q8N3R9)”, for which the log2 fold change amounted to 0.566.
In the case of “MIER2 (peptide sequence: YDYFAQQTR, peptide start residue: 330) (UniProt Q8N344)” it was -0.175; in that of “GPD1L (peptide sequence: FCETTIGSK, peptide start residue: 163) (UniProt Q8N335)”, 0.433.
As for “MAP7D3 (peptide sequence: EAVGGQAEDHLK, peptide start residue: 640) (UniProt Q8IWC1)”, the log2 fold change was 0.383.
In the case of “HEATR5A (peptide sequence: SLVASSPALK, peptide start residue: 1991) (UniProt Q86XA9)”, the log2 fold change came out at 0.0723.
Turning to “UniProt Q8IVC4 (peptide sequence: VIQHQDTHSEGKPR, peptide start residue: 118)”, the log2 fold change was -1.31.
In the case of “UniProt Q8IXM2 (peptide sequence: KVYEDSGIPLPAESPK, peptide start residue: 83)” it was -0.436.
As for “NCAPG2 (peptide sequence: VQIHDTR, peptide start residue: 747) (UniProt Q86XI2)”, the log2 fold change amounted to 0.563.
In the case of “VWDE (peptide sequence: TGTFVLYK, peptide start residue: 446) (UniProt Q8N2E2)” it was -0.393; in that of “UniProt Q86XN6 (peptide sequence: AFSQGLLTFR, peptide start residue: 2)”, -0.323.
Regarding “RBM45 (peptide sequence: ERFSPFGDIQDIWVVR, peptide start residue: 43) (UniProt Q8IUH3)”, the log2 fold change is -0.125.
For the target “CCDC25 (peptide sequence: TADMDVGQIGFHR, peptide start residue: 101) (UniProt Q86WR0)”, the log2 fold change was 0.209.
Turning to “UniProt Q8IW45 (peptide sequence: LHALVVGPGLGRDDALLR, peptide start residue: 145)”, the log2 fold change is -1.08.
As for “SYTL1 (peptide sequence: GDQAPGHDR, peptide start residue: 114) (UniProt Q8IYJ3)”, the figure is 0.868.
In the case of “UniProt Q8N2M8 (peptide sequence: SQSPSPSPAR, peptide start residue: 529)” it was 0.655; in that of “MAP4K3 (peptide sequence: LLQHPFVTQHLTR, peptide start residue: 267) (UniProt Q8IVH8)”, -1.05; in that of “TRMT2A (peptide sequence: HASFSDVR, peptide start residue: 83) (UniProt Q8IZ69)”, 0.255.
Consider “ERC1 (peptide sequence: RLAEAEMHVHHLESLLEQK, peptide start residue: 335) (UniProt Q8IUD2)”, for which the log2 fold change is -0.42.
For the target “GID4 (peptide sequence: ARPGLSLPATLLGSR, peptide start residue: 50) (UniProt Q8IVV7)”, the log2 fold change was -0.0637.
For “SVBP (peptide sequence: AEIYALNR, peptide start residue: 37) (UniProt Q8N300)”, the log2 fold change is -0.0615.
Consider “VPS52 (peptide sequence: GFFSKPSLR, peptide start residue: 331) (UniProt Q8N1B4)”, for which the log2 fold change was 0.332.
Take “AHI1 (peptide sequence: HHESSSVDTEPGLEESKEVIK, peptide start residue: 566) (UniProt Q8N157)”: the log2 fold change is 0.271.
In the case of “UniProt Q8IUI4 (peptide sequence: FAPTVSDLLK, peptide start residue: 188)” it was 0.0311; in that of “DGKH (peptide sequence: ASYGHSQTDSVPGPAVAASK, peptide start residue: 690) (UniProt Q86XP1)”, -0.408.
With “FAM177A1 (peptide sequence: MKKEEEEEEEENR, peptide start residue: 142) (UniProt Q8N128)”, the log2 fold change was found to be 0.423.
